Our source for the binding values is US20090297500A1.

Chains of the proteins cited; added tags and fusions are not shown. Lines headed by an entry give the natural chain unless they say otherwise; changes in a name come on top.
UniProt P61586: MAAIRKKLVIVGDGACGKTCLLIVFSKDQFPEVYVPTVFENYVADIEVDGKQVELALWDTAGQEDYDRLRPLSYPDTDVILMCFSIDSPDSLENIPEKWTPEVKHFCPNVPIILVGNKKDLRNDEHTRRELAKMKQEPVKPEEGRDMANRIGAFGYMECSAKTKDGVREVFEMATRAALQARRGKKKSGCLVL

Results are given in words; binding and its absence hold for the method and conditions named. In cells and extracts the contact can be indirect. Some entries that bind do so weakly or less than the wild type.

The target in this experiment is RhoA (endogenous, LC319 lung-cancer cells) (human) (UniProt P61586). Put plainly: co-immunoprecipitation from LC319 extracts: IP with anti-ANLN antibody, immunoblot with anti-RhoA antibody. For orientation: A western blot detects proteins with antibodies after separation by electrophoresis.

B1: ANLN (human anillin, actin binding protein) (protein)
chain: MDPFTEKLLERTRARRENLQRKMAERPTAAPRSMTHAKRARQPLSEASNQQPLSGGEEKSCTKPSPSKKRCSDNTEVEVSNLENKQPVESTSAKSCSPSPVSPQVQPQAADTISDSVAVPASLLGMRRGLNSRLEATAASSVKTRMQKLAEQRRRWDNDDMTDDIPESSLFSPMPSEEKAASPPRPLLSNASATPVGRRGRLANLAATICSWEDDVNHSFAKQNSVQEQPGTACLSKFSSASGASARINSSSVKQEATFCSQRDGDASLNKALSSSADDASLVNASISSSVKATSPVKSTTSITDAKSCEGQNPELLPKTPISPLKTGVSKPIVKSTLSQTVPSKGELSREICLQSQSKDKSTTPGGTGIKPFLERFGERCQEHSKESPARSTPHRTPIITPNTKAIQERLFKQDTSSSTTHLAQQLKQERQKELACLRGRFDKGNIWSAEKGGNSKSKQLETKQETHCQSTPLKKHQGVSKTQSLPVTEKVTENQIPAKNSSTEPKGFTECEMTKSSPLKITLFLEEDKSLKVTSDPKVEQKIEVIREIEMSVDDDDINSSKVINDLFSDVLEEGELDMEKSQEEMDQALAESSEEQEDALNISSMSLLAPLAQTVGVVSPESLVSTPRLELKDTSRSDESPKPGKFQRTRVPRAESGDSLGSEDRDLLYSIDAYRSQRFKETERPSIKQVIVRKEDVTSKLDEKNNAFPCQVNIKQKMQELNNEINMQQTVIYQASQALNCCVDEEHGKGSLEEAEAERLLLIATGKRTLLIDELNKLKNEGPQRKNKASPQSEFMPSKGSVTLSEIRLPLKADFVCSTVQKPDAANYYYLIILKAGAENMVATPLASTSNSLNGDALTFTTTFTLQDVSNDFEINIEVYSLVQKKDPSGLDKKKKTSKSKAITPKRLLTSITTKSNIHSSVMASPGGLSAVRTSNFALVGSYTLSLSSVGNTKFVLDKVPFLSSLEGHIYLKIKCQVNSSVEERGFLTIFEDVSGFGAWHRRWCVLSGNCISYWTYPDDEKRKNPIGRINLANCTSRQIEPANREFCARRNTFELITVRPQREDDRETLVSQCRDTLCVTKNWLSADTKEERDLWMQKLNQVLVDIRLWQPDACYKPIGKP
With B1, the binding result was “binds”.
